Laboratory results as given in US11739074B2, “Ras inhibitors” (Revolution Medicines, Inc., priority 2019, dated 2023).
Some entries share one result that the patent states for a list of compounds. For part of these data: At least one structure is not confirmed: it was looked up by name or label, or the drawing left a doubt.

What was measured:
Format in all cases: cell-based, human
AsPC-1 (K-Ras G12D) [1] = experiment: Potency assay: pERK in AsPC-1 cells; settings: read-out: pERK EC50 (AsPC-1 KRAS G12D)
NCI-H358 (K-Ras G12C) = experiment: CellTiter-Glo cell viability assay, H358; settings: read-out: H358 Cell Viability IC50, 5-day treatment
Description: (§1) Determination of Cell Viability in RAS Mutant Cancer Cell Lines
(§2) Protocol: CellTiter-Glo® Cell Viability Assay
(§3) Note—The following protocol describes a procedure for monitoring cell viability of K-Ras mutant cancer cell lines in response to a compound of the invention. Other RAS isoforms may be employed, though the number of cells to be seeded will vary based on cell line used.
(§4) Test compounds (132.5 nL) were directly dispensed into the assay plates containing cells. […] On day 5, assay plates and their contents were equilibrated to room temperature for approximately 30 minutes. […] Luminescence was measured using the PerkinElmer Enspire. Data were normalized by the following: (Sample signal/Avg. DMSO)*100. The data were fit using a four-parameter logistic fit.

AsPC-1 (K-Ras G12D) [2] = experiment: CellTiter-Glo cell viability assay, AsPC-1; settings: read-out: AsPC-1 Cell Viability IC50, 5-day treatment
Description: as §1, §2, §3, §4

Row | SMILES | EC50 (AsPC-1 (K-Ras G12D) [1]) | IC50 (NCI-H358 (K-Ras G12C)) | IC50 (AsPC-1 (K-Ras G12D) [2])
1 | CCn1c(-c2cccnc2[C@H](C)OC)c2c3cc(ccc31)-c1cc(O)cc(c1)C[C@H](NC(=O)[C@H](C(C)C)N(C)C(=O)N1CCN(C(=O)[C@@H]3CN3)CC1)C(=O)N1CCC[C@H](N1)C(=O)OCC(C)(C)C2 (atropisomer, axis not shown) [19 7] | < 5 µM |  | 
2 | CCn1c(-c2cccnc2[C@H](C)OC)c2c3cc(ccc31)-c1cc(O)cc(c1)C[C@H](NC(=O)[C@H](C(C)C)N(C)C(=O)c1ccc([C@@H]3CN3)cc1)C(=O)N1CCC[C@H](N1)C(=O)OCC(C)(C)C2 [1 31] | < 5 µM |  | 
3 | CCn1c(-c2cccnc2[C@H](C)OC)c2c3cc(ccc31)-c1cc(O)cc(c1)C[C@H](NC(=O)[C@H](C(C)C)N(C)C(=O)[C@@]1(C)CCCN1C(=O)[C@@H]1CN1)C(=O)N1CCC[C@H](N1)C(=O)OCC(C)(C)C2 [2 41] | < 5 µM |  | 
4 | CCn1c(-c2cccnc2[C@H](C)OC)c2c3cc(ccc31)-c1cc(cc(C(F)F)c1)C[C@H](NC(=O)[C@H](C1CCCC1)N1CC[C@]3(CCN(C(=O)[C@@H]4N[C@@H]4C4CC4)C3)C1=O)C(=O)N1CCC[C@H](N1)C(=O)OCC(C)(C)C2 [3 18] | < 5 µM |  | 
5 | CCn1c(-c2cccnc2[C@H](C)OC)c2c3cc(ccc31)-c1cc(O)cc(c1)C[C@H](NC(=O)[C@H](C(C)C)N1CC[C@@]3(CCN(C(=O)[C@@H]4N[C@@H]4C4CC4)C3)C1=O)C(=O)N1CCC[C@H](N1)C(=O)OCC(C)(C)C2 [12 8] | < 5 µM |  | 
6 | CCn1c(-c2cccnc2[C@H](C)OC)c2c3cc(ccc31)-c1cc(O)cc(c1)C[C@H](NC(=O)[C@H](C(C)C)N(C)C(=O)CN(C)C(=O)[C@H]1CN1CCOC)C(=O)N1CCC[C@H](N1)C(=O)OCC(C)(C)C2 (stereo partly drawn) [15 9] | < 5 µM |  | 
7 | CCn1c(-c2cccnc2[C@H](C)OC)c2c3cc(ccc31)-c1csc(n1)C[C@H](NC(=O)[C@H](C1CCCC1)N1CC[C@]3(CCN(C(=O)[C@@H]4N[C@@H]4C4CC4)C3)C1=O)C(=O)N1CCC[C@H](N1)C(=O)OCC(C)(C)C2 [23 4] | < 5 µM |  | 
8 | CCn1c(-c2cnccc2COC)c2c3cc(ccc31)-c1cc(O)cc(c1)C[C@H](NC(=O)[C@H](C(C)C)N(C)C(=O)CN(C)C(=O)C1CN1)C(=O)N1CCC[C@H](N1)C(=O)OCC(C)(C)C2 (stereo partly drawn) [32 A and B] |  | 1 to 10 µM | 
9 | CCn1c(-c2cnccc2COC)c2c3cc(ccc31)-c1cc(O)cc(c1)C[C@H](NC(=O)[C@H](C(C)C)N(C)C(=O)CN(C)C(=O)C1CN1)C(=O)N1CCC[C@H](N1)C(=O)OCC(C)(C)C2 (stereo partly drawn) [Compound 33] |  | 0.01 to 0.1 µM | 
10 | CCn1c(-c2cccnc2[C@H](C)OC)c2c3cc(ccc31)-c1cc(O)cc(c1)C[C@H](NC(=O)[C@H](C(C)C)N(C)C(=O)CN(C)C(=O)[C@H]1N[C@@H]1C1CC1)C(=O)N1CCC[C@H](N1)C(=O)OCC(C)(C)C2 [Compound 135] | < 5 µM | 0.01 to 0.1 µM | 
11 | CCn1c(-c2cccnc2[C@H](C)OC)c2c3cc(ccc31)-c1cc(O)cc(c1)C[C@H](NC(=O)[C@H](C(C)C)N(C)C(=O)CN(C)C(=O)[C@H]1N[C@@H]1C1CC1)C(=O)N1CCC[C@H](N1)C(=O)OCC(C)(C)C2 [Compound 136] |  |  | 0.1 to 1 µM
